According to paper PMC12561399:
Results are given in words; binding and its absence hold for the method and conditions named. Binding seen in cells or lysates may run through a third protein. Some entries that bind do so weakly or less than the wild type.

How the values were obtained:
[1] = target: T1, periostin (POSTN) (mouse (endogenous in mouse TDSCs and mouse tendon tissue)) (UniProt Q62009); assay: co-IP; lysate of osteogenic induced TDSCs; antibody overnight at 4 °C, Protein A/G magnetic beads, SDS-PAGE and blot; N = 3
T1 sequence: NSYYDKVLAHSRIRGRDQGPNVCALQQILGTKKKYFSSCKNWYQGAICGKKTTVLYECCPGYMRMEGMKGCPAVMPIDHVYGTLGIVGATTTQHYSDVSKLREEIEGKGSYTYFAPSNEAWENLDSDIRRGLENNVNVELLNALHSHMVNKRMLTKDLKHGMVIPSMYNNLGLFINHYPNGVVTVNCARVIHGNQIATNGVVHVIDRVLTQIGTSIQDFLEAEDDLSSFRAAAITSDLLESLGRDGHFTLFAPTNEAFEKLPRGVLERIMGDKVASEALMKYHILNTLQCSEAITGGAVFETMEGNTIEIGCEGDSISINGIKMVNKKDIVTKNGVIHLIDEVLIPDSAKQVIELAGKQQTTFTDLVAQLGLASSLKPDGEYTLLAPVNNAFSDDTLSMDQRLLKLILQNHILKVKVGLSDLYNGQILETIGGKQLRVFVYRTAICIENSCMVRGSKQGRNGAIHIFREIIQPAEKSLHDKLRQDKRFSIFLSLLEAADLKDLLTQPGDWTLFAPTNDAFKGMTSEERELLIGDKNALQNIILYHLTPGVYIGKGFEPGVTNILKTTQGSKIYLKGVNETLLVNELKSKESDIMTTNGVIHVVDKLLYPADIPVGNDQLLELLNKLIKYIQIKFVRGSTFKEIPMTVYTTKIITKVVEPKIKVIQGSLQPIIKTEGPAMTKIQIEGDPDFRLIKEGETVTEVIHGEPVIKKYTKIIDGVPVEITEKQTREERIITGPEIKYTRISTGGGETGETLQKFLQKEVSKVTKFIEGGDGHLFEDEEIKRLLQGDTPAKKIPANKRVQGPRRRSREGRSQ

[2] = target: T1, periostin (POSTN) (mouse (endogenous in mouse TDSCs and mouse tendon tissue)); assay: co-IP; heterotopic ossified tissue (in vivo); antibody overnight at 4 °C, Protein A/G magnetic beads, SDS-PAGE and blot; N = 3

B1: Protein Tyrosine Kinase 7 (PTK7) (receptor, UniProt Q8BKG3 23-1062)
chain: AIVFIKEPSSQDALQGRRALLRCEVEAPDPVHVYWLLNGVPVQDTERRFAQGSSLSFAAVDRLQDSGAFQCVARDNVTGEEVRSTNASFNIKWIEAGPVVLKHPASEAEIQPQTQVTLRCHIDGHPRPTYQWFRDGTPLSDDQSTHTVSSRERNLTLRPASPEHSGLYSCCAHNAFGQACSSQNFTLSVADESFARVVLAPQDVVVARNEEAMFHCQFSAQPPPSLQWVFEDETPITNRSRPPHLRRAVVFANGSLLLTQVRPRNAGVYRCIGQGQRGPPIVLEATLHLAEIEDMLPFEPRVFIAGDEERVTCPAPQGLPTPSVWWEHAGVPLPAHGRVHQKGLELVFVTIAESDTGVYTCHASNLAGQRRQDVNITVATVPTWLRKPQDSQLEEGKPGYLHCLTQATPKPTVIWYRNQMLISEDSRFEVSKNGTLRINSVEVYDGTLYRCVSSTPAGSIEAQARVQVLEKLKFTPPPQPQQCMEFDKEATVPCSATGREKPTVKWVRADGSSLPEWVTDNAGTLHFARVTRDDAGNYTCIASNEPQGQIRAHVQLTVAVFITFKVEPERTTVYQGHTALLRCEAQGDPKPLIQWKGKDRILDPTKLGPRMHIFQNGSLVIHDVAPEDSGSYTCIAGNSCNIRHTEAPLLVVDKPVMEDSEGPGSPPPYKMIQTIGLSVGAAVAYIIAVLGLMFYCKKRCKAKRLQKQPEGEEPEMECLNGGPLQNGQPSAEIQEEVALTSLGSGPPATNKRHSAGDRMHFPRASLQPITTLGKSEFGEVFLAKAQGVEEGATETLVLVKSLQSRDEQQQLDFRREVEMFGKLNHANVVRLLGLCREAEPHYMVLEYVDLGDLKQFLRISKNKDEKLKSQPLSTKQKVALCSQVALGMEHLSNNRFVHKDLAARNCLISAQRQVKVSALGLSKDVYNSEYYHFRQAWVPLRWMSPEAVLEGDFSTKSDVWAFGVLMWEVFTHGEMPHGGQADDEVLADLQAGKARLPQPEGCPSKLYRLMQRCWAPNPKDRPSFSEIASTLGDSPADSKQ
[1]
  binding: binds
[2]
  binding: binds
